According to publication PMC5855860:
Results are given in words; binding and its absence hold for the method and conditions named. Binding seen in cells or lysates may run through a third protein. Where a sequence is shown, tags or fusion partners need not be part of it.

By UniProt entry, the sequences of proteins in these tests, tags left out. Where a name states a change or a piece, a line headed by the entry shows the natural chain unless it says otherwise.
UniProt Q9SUR3: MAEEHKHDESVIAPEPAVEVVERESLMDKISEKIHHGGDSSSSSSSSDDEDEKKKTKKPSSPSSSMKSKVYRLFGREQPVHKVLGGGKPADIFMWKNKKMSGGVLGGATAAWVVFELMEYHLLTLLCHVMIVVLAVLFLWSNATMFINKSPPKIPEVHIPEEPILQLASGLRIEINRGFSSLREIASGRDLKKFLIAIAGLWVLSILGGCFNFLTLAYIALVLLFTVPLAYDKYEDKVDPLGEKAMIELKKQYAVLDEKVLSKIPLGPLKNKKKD

Biological target: GST-RTNLB1 fusion protein (Arabidopsis thaliana) (UniProt Q9SUR3)
Experiment: pull-down; GST fusion or GST only on glutathione-sepharose beads, incubated with T7-tagged proteins from E. coli; bound proteins eluted with glutathione; blot with anti-T7 tag and anti-GST antibodies

binding: no binding
B1: T7-tagged-RTNLB8 protein (protein, UniProt Q9SS37 1-247)
chain: MPDKNIVEDVIGDLVDNFTETVQKNKHGSSFFEQEDSVSSRFNRLFDRQKPIHHVLGGGKSADVLLWRNKKISASVLMGATAIWVLFEWINFHFLSLVCYALLLGMIAQFVWSNASGFLNRSQSRVPRLVLPKDFFAEVGVAVGKEVNRGLLFLQDLACKGNLKQFLMAVIGLWVAAMVGSCCNFLTVLYIGFVGAHTMPVLYERYEDEVDGFMDSMIMKFHSHYKKLDTGFLSRIPSGKFGLKKRE
